Data as given in PubChem BioAssay AID1224830 (NIAID, 2016).

- Test: 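Regulators of TLR4 signalling towards TNF-alpha in macrophage-like cells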 (primary screen)
- Cells: human THP-1 monocytic leukaemia cells, TNF dual-luciferase reporter clone, PMA-differentiated to macrophage-like cells
- Reagent: siRNA pool against human genes, 50 nM
- Duration: LPS for 4 h, given about 3 days after siRNA transfection
- Conditions: bacterial LPS (TLR4 ligand), 10 ng/ml
- Measurement: 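TNF firefly reporter luminescence divided by renilla, normalised to the plate median, then turned into a robust z-score for each replicate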
- Reading the numbers: TNF reporter robust z-score: higher = stronger TNF reporter response to LPS
- Hit rule: 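Each well counts as active if its z-score is over 2.8 or under -1.5; controls are left without a call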
Here is a random part of about 18,000 deposited reagents. About 2,900 of all reagents (16%) count as active. 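Calls are made per well; low scores hint the gene aids the LPS response, high scores that it dampens it.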 Entries without a mark were called inactive. Repeated entries: four replicate wells of each siRNA pool.

Against ZHX2, the values are TNF reporter robust z-score 0.94.
With knock-down of ZHX2 the results were TNF reporter robust z-score 0.98.
Depletion of ZHX2 came out at: TNF reporter robust z-score 1.07.
Against ZHX2 the deposit lists TNF reporter robust z-score 0.83.
Silencing of SEPHS2 came out at: TNF reporter robust z-score 0.29.
For SEPHS2, the values are TNF reporter robust z-score 1.39.
SEPHS2 gave TNF reporter robust z-score -0.11.
After knock-down of SEPHS2 the results were TNF reporter robust z-score 0.65.
Against CPO, the values are TNF reporter robust z-score 0.94.
Depletion of CPO gave: TNF reporter robust z-score -0.24.
CPO showed TNF reporter robust z-score -0.73.
CPO showed TNF reporter robust z-score 0.07.
With knock-down of ANKLE1, the screen gave TNF reporter robust z-score -1.2.
Silencing of ANKLE1 gave: TNF reporter robust z-score 0.33.
After knock-down of ANKLE1, the record shows TNF reporter robust z-score -0.31.
After knock-down of ANKLE1, the record shows TNF reporter robust z-score -0.65.
SDHAF3 showed TNF reporter robust z-score -0.78.
SDHAF3 gave TNF reporter robust z-score 0.88.
SDHAF3 scored TNF reporter robust z-score 0.09.
Depletion of SDHAF3 gave: TNF reporter robust z-score -0.09.
For SIGMAR1 the deposit lists TNF reporter robust z-score 0.16.
With knock-down of SIGMAR1, the record shows TNF reporter robust z-score 0.55.
With knock-down of SIGMAR1, the screen gave TNF reporter robust z-score 0.08.
Against SIGMAR1, the entry reads TNF reporter robust z-score 0.54.
Depletion of LLGL2 came out at: TNF reporter robust z-score -0.63.
Against LLGL2, the entry reads TNF reporter robust z-score 0.38.
Depletion of LLGL2 resulted in: TNF reporter robust z-score 0.89.
With knock-down of LLGL2 the results were TNF reporter robust z-score 0.26.

Not a retest: an excerpt of the list.
SDHAF3 — TNF reporter robust z-score: -0.78
SDHAF3 — TNF reporter robust z-score: 0.88
SDHAF3 — TNF reporter robust z-score: 0.09
SDHAF3 — TNF reporter robust z-score: -0.09
SIGMAR1 — TNF reporter robust z-score: 0.16
SIGMAR1 — TNF reporter robust z-score: 0.55
SIGMAR1 — TNF reporter robust z-score: 0.08
SIGMAR1 — TNF reporter robust z-score: 0.54

The list goes on:
Depletion of CDK13 gave: TNF reporter robust z-score 1.5.
Against CDK13 the deposit lists TNF reporter robust z-score 5.23 (active).
Depletion of CDK13 resulted in: TNF reporter robust z-score -0.12.
CDK13 scored TNF reporter robust z-score -0.85.
Knock-down of PIK3R6 gave: TNF reporter robust z-score -0.26.
With knock-down of PIK3R6 the results were TNF reporter robust z-score 0.77.
For PIK3R6 the deposit lists TNF reporter robust z-score 0.23.
Against PIK3R6, the values are TNF reporter robust z-score -0.74.
With knock-down of HTR1F the results were TNF reporter robust z-score -0.72.
With knock-down of HTR1F the results were TNF reporter robust z-score -0.27.
Silencing of HTR1F resulted in: TNF reporter robust z-score -0.79.
For HTR1F, the entry reads TNF reporter robust z-score -0.45.
Knock-down of OXT resulted in: TNF reporter robust z-score 0.34.
OXT scored TNF reporter robust z-score 1.23.
With knock-down of OXT the results were TNF reporter robust z-score -0.38.
Against OXT, the entry reads TNF reporter robust z-score 0.85.
HCRTR2 scored TNF reporter robust z-score -1.51 (active).
HCRTR2 gave TNF reporter robust z-score -0.07.
Silencing of HCRTR2 resulted in: TNF reporter robust z-score -0.5.
With knock-down of HCRTR2, the record shows TNF reporter robust z-score 0.82.
